Assay results: PMC12040169 (PLOS Biology, 2025)
Some of the results follow.

These compounds were tested on T1, CTL2-GFP (C. trachomatis L2/434/Bu, GFP-expressing). Conditions: bulk GFP, single well; 28.5 h, 10 µM; inhibitor.
T1 construct: L2/434/Bu, GFP-expressing
Parameters: species or system HeLa; Intracellular C. trachomatis growth in HeLa cells, bulk GFP fluorescence relative to DMSO
With `O=C1NCCN(C(=O)c2cccc3cccnc23)C1Cc1ccc(-c2cccs2)cc1` (stereo not drawn) [CBK285809] the “% of control remaining” value was 94.1108%. With `O=C(CC1CCCCC1)N1CCC2(CCCNC2)C1` (stereo not drawn) [CBK137154C] the “% of control remaining” value was 108.068%. With `C=CCNc1nccnc1-c1cccnc1` [CBK037016] the “% of control remaining” value was 160.83%. `CCc1cnc(CNC(=O)NCc2nc3cc(C)ccc3n2C)s1` [CBK306261] was tested, and the “% of control remaining” value was 150.914%. For `Cc1ccc2nc(-c3ccccn3)cc(C(=O)NCc3ccccn3)c2c1` [CBK267782], the “% of control remaining” value was 137.936%. In the case of `Cc1nc([N+](=O)[O-])c(C(=O)OCc2ccccc2C#N)n1C` [CBK293991], the “% of control remaining” value was 164.084%. With `S=C1NC2(CCCCC2)NC12CCCCC2` [CBK006533] the “% of control remaining” value was 122.382%. With `Cc1ccc(-c2noc(CN(C(=O)c3ccc(Br)o3)C(C)C)n2)cc1` [CBK269440] the “% of control remaining” value was 112.689%. In the case of `CC(C)Nc1cccnc1N(C)C1CCN(C(=O)c2cc(Br)c[nH]2)CC1` [CBK016797], the “% of control remaining” value was 125.783%. With `O=C(C1CC1)N1CCCc2cc(C(O)CN3CCCCC3)ccc21` (stereo not drawn) [CBK282135] the “% of control remaining” value was 164.785%. For `O=C1CN(S(=O)(=O)CCOc2ccccc2)CC(=O)N1CCc1ccccc1` [CBK261134], the “% of control remaining” value was 100.673%. With `CC(Cn1cc(Cl)cn1)C(=O)N1CCN(C)CC1c1ccccc1` (stereo not drawn) [CBK282016] the “% of control remaining” value was 108.844%. For `CCC(CN(C)C)C(=O)c1ccccc1` (stereo not drawn) [CBK015409C], the “% of control remaining” value was 131.563%. For `Cc1ccn(-c2ccc(N3CCC(OC4CCOCC4)CC3)nn2)n1` [CBK306296], the “% of control remaining” value was 116.083%. In the case of `O=C(NC(c1ccc(Cl)cc1)c1ccsc1)C1CCN(S(=O)(=O)CC(F)(F)F)CC1` (stereo not drawn) [CBK060088], the “% of control remaining” value was 102.615%. With `CCOC(=O)N1CCN(CC2CCCCN2)CC1` (stereo not drawn) [CBK022780G] the “% of control remaining” value was 142.384%. With `Cc1cc(NS(=O)(=O)c2ccc(NC(=O)c3cc4ccccc4o3)cc2)no1` [CBK267597] the “% of control remaining” value was 126.287%. In the case of `CSc1nc(C)c(CCC(=O)N(C)Cc2c(C)nn(-c3ccccc3)c2C)c(=O)[nH]1` [CBK297925], the “% of control remaining” value was 146.677%. `NC(=O)COc1ccc(CNC(=O)CN2CCc3sccc3C2)cc1` [CBK306111] was tested, and the “% of control remaining” value was 116.322%. For `Cc1cc2nc(-c3cc(NC(=O)c4cccc([N+](=O)[O-])c4)ccc3O)oc2cc1C` [CBK262855], the “% of control remaining” value was 97.2454%. With `CCCNc1cncc(-c2cccc(CO)c2)n1` [CBK065433] the “% of control remaining” value was 177.03%. For `CCN(C(=O)Nc1cccnc1Oc1ccc(F)cc1)C1CCOCC1` [CBK306535], the “% of control remaining” value was 144.406%. `Cc1ccc2nc(SCC(=O)O)nc(C)c2c1` [CBK265996] was tested, and the “% of control remaining” value was 130.193%. With `CS(=O)(=O)Nc1nccnc1N1CCN(Cc2ccc([N+](=O)[O-])cc2)CC1` [CBK084274] the “% of control remaining” value was 107.411%. `CC(=O)Nc1ccc(N2CC(C(=O)O)CC2=O)cc1` (stereo not drawn) [CBK287149] was tested, and the “% of control remaining” value was 136.264%. In the case of `O=C(CCS(=O)(=O)c1ccccc1)NCc1ccccc1OC1CCNC1` (stereo not drawn) [CBK028296T], the “% of control remaining” value was 79.9766%. For `CCN(CC)C(=O)c1ccccc1NS(=O)(=O)c1ccc(F)cc1` [CBK045414], the “% of control remaining” value was 121.463%. For `CC1=CCN(C(=O)c2cccc(S(=O)(=O)NCC3CCCO3)c2)CC1` (stereo not drawn) [CBK304669], the “% of control remaining” value was 125.897%. `CC(C)(C)OC(=O)N1CCCC(NCc2ccccn2)CC1` (stereo not drawn) [CBK305128] was tested, and the “% of control remaining” value was 108.909%. In the case of `Nc1nc2c(ccn2[C@H]2C[C@@H](O)[C@@H](CO)O2)c(=O)[nH]1` [CBK201238], the “% of control remaining” value was 123.198%. With `COc1cc(/C=N/c2ccc3oc(-c4ccc(C(C)(C)C)cc4)nc3c2)ccc1OC(=O)c1ccc(Cl)cc1Cl` [CBK261238] the “% of control remaining” value was 98.2163%. For `CCCN1CCC(CNC(=O)c2cc3ccc(OC)cc3n2C)CC1` [CBK282542], the “% of control remaining” value was 121.302%. `Cc1ccc(CN(c2ccc(C(=O)O)cc2)S(C)(=O)=O)cc1` [CBK287203] was tested, and the “% of control remaining” value was 138.607%. With `NC(=O)CN1CCC(Oc2cncc(OCc3ccc(Cl)c(Cl)c3)n2)C1` (stereo not drawn) [CBK084429] the “% of control remaining” value was 92.4722%. For `Cn1nc(C2CCN(C(=O)CC3CCCC3)CC2)c2cccnc21` [CBK284943], the “% of control remaining” value was 132.085%. `CCCCNS(=O)(=O)c1ccc(Cl)c(Cl)c1` [CBK044309] was tested, and the “% of control remaining” value was 132.818%. With `Nc1nonc1N/N=C/c1ccccc1F` [CBK028838] the “% of control remaining” value was 98.7526%. With `COc1ccc(CCCC(=O)N2CCC(c3c(C(N)=O)sc4ccccc34)C2)cc1C` (stereo not drawn) [CBK285848] the “% of control remaining” value was 128.082%. `CCCCc1cc(C[C@@H]2C[C@H](NC(=O)N3CCOCC3)C2(C)C)no1` [CBK289257] was tested, and the “% of control remaining” value was 150.663%. `Cc1ccccc1C(=O)NCC(=O)Nc1ccc2cc(Br)cnc2n1` [CBK063312] was tested, and the “% of control remaining” value was 90.9583%. `O=C(c1cccs1)N1CCN(Cc2cc(=O)n3ccsc3n2)CC1` [CBK305872] was tested, and the “% of control remaining” value was 96.3317%. With `O=C(CCc1ccncc1)N1CCCCC1CN1CCCCCC1` (stereo not drawn) [CBK282102] the “% of control remaining” value was 135.884%. For `CC(C)(C)C(=O)NC1(C(F)(F)F)N=C(c2ccccc2)NC1=O` (stereo not drawn) [CBK267475], the “% of control remaining” value was 163.011%. For `CCc1c(C)sc(NC(=O)C2CCC2)c1C(=O)NCc1cccnc1` [CBK307414], the “% of control remaining” value was 92.5834%. In the case of `CCc1ccc(Oc2c[nH]nc2-c2ccc(OCc3cnn(-c4ccccc4)c3)cc2O)cc1` [CBK266233], the “% of control remaining” value was 122.989%. With `COc1ccc(-c2cc(C(=O)NCCc3c[nH]c4ccccc34)cnc2-c2ccc(F)cc2)cn1` [CBK036649] the “% of control remaining” value was 201.84%. For `O=C(Nc1ccc2[nH]ccc2c1)c1ccc(F)c(F)c1` [CBK159683], the “% of control remaining” value was 190.695%. With `COc1cc(C(=O)Nc2cc(-c3nc4ncccc4o3)ccc2C)ccc1OCc1ccc(Cl)cc1` [CBK264704] the “% of control remaining” value was 113.076%. With `COc1ccc(CC(=O)N2CCNC(=O)C2Cc2ccccc2-c2ccccc2)cc1OC` (stereo not drawn) [CBK285827] the “% of control remaining” value was 129.358%. With `Clc1cc(-c2cnc3ccccc3n2)c(Cl)s1` [CBK006186] the “% of control remaining” value was 116.549%. In the case of `O=C(NC(C(=O)N/N=C/c1cccc(O)c1)c1n[nH]c(=O)c2ccccc12)c1ccccc1` (stereo not drawn) [CBK262853], the “% of control remaining” value was 100%.
